# Hit rate of the full screen: of about 300,000 compounds, about 520 (0.17%) were called active. This list was built around the results that the source calls inconclusive (neither active nor inactive); the mix of calls is not that of the screen. No stated cut-off is given here; in the data, active means inhibition above about 50%; inconclusive means no clear call, values can overlap the other calls; inactive means below that.
# Assay: PubChem AID 1554
# Conditions: BJeLR (HRASV12) viability, CellTiter-Glo ATP luminescence, 48 h; active compounds read high; concentration not given here
row,Structure (SMILES),inhibition
1,CCOc1ccc(OCc2cccc(C(=O)O)c2)cc1,active: 55.3%
2,O=C(CSc1ccccc1)NNC(=O)c1ccccc1O,inactive: 12.7%
3,O=C(Cc1c(O)c2ccccc2[nH]c1=O)N(Cc1ccccc1)Cc1ccccc1,inactive: 16.4%
4,COc1ccc2[nH]c3c(NCCC4=CCCCC4)ncnc3c2c1,inconclusive: 54.4%
5,O=S(=O)(c1ccc2c(c1)C(=NO)c1cc(S(=O)(=O)N3CCCCC3)ccc1-2)N1CCCCC1,active: 94.9%
6,N/C(=N\OC(=O)c1cccc2ccccc12)c1ccccn1,inactive: 2.46%
7,O=C(CSc1ccccn1)NCc1ccc2c(c1)OCO2,inconclusive: 53.7%

# Gathered by group, the entries above with an NH in an aromatic ring (2)
row,Structure (SMILES),inhibition
3,O=C(Cc1c(O)c2ccccc2[nH]c1=O)N(Cc1ccccc1)Cc1ccccc1,inactive: 16.4%
4,COc1ccc2[nH]c3c(NCCC4=CCCCC4)ncnc3c2c1,inconclusive: 54.4%
